Drawing on the supplement of paper PMC10849652, this text covers log2 fold change for 39 targets.

The chains behind the UniProt entries cited, without tags or fusion partners. Where a name states a change or a piece, a line headed by the entry shows the natural chain unless it says otherwise.
UniProt Q9BZJ0: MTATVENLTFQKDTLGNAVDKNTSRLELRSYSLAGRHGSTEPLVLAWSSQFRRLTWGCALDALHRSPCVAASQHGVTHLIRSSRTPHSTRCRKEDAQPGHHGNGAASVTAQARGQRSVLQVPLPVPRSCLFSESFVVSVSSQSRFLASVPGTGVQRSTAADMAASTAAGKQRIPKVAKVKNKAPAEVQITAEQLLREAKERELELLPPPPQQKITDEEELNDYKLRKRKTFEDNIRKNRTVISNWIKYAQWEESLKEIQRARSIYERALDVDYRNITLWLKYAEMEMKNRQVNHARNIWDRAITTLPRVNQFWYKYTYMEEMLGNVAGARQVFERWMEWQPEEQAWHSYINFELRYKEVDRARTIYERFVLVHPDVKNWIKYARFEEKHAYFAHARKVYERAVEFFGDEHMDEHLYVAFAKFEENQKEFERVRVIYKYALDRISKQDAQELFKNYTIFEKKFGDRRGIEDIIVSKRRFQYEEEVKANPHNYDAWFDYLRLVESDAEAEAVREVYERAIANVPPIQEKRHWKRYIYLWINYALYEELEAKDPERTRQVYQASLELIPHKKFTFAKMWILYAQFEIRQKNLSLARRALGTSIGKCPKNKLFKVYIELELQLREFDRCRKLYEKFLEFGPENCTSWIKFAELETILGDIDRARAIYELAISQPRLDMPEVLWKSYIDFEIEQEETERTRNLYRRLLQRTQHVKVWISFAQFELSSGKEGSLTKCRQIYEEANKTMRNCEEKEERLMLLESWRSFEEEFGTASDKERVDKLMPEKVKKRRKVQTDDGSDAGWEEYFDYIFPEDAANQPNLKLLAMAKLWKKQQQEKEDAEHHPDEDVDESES
UniProt P46108: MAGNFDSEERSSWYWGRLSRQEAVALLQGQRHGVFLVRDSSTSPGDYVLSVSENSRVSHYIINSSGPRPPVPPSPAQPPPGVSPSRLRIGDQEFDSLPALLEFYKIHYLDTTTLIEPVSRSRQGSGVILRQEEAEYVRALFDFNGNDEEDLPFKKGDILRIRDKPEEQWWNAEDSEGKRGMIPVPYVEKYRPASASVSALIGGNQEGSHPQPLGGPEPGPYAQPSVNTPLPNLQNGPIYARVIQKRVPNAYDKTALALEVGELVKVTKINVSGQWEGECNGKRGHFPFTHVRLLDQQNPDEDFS
UniProt P16220: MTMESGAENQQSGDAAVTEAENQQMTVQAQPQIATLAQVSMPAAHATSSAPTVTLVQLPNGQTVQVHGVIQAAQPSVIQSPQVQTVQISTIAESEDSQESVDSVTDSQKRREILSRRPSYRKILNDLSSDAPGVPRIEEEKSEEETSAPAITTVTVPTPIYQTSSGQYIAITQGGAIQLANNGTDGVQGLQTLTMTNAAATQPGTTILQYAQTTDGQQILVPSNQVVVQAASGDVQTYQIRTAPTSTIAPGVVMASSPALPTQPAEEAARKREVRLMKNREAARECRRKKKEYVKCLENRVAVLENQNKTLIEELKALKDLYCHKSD
UniProt P48730: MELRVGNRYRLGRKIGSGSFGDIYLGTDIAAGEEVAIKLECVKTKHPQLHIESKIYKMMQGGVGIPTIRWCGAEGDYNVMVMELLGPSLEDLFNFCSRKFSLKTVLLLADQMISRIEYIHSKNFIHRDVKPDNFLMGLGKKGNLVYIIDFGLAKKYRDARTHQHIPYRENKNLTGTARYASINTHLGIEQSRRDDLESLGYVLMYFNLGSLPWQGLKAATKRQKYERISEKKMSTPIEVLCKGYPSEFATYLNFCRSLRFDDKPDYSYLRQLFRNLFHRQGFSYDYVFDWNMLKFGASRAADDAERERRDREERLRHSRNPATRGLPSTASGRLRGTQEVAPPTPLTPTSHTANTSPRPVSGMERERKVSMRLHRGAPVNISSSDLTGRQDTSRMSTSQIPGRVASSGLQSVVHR
UniProt P49447: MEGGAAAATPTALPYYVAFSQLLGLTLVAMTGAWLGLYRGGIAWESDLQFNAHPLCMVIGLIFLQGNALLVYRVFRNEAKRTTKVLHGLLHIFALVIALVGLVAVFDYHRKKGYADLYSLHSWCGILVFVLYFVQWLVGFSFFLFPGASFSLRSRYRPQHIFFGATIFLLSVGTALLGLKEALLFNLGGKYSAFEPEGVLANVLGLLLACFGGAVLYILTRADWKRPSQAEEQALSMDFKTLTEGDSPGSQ
UniProt Q14999: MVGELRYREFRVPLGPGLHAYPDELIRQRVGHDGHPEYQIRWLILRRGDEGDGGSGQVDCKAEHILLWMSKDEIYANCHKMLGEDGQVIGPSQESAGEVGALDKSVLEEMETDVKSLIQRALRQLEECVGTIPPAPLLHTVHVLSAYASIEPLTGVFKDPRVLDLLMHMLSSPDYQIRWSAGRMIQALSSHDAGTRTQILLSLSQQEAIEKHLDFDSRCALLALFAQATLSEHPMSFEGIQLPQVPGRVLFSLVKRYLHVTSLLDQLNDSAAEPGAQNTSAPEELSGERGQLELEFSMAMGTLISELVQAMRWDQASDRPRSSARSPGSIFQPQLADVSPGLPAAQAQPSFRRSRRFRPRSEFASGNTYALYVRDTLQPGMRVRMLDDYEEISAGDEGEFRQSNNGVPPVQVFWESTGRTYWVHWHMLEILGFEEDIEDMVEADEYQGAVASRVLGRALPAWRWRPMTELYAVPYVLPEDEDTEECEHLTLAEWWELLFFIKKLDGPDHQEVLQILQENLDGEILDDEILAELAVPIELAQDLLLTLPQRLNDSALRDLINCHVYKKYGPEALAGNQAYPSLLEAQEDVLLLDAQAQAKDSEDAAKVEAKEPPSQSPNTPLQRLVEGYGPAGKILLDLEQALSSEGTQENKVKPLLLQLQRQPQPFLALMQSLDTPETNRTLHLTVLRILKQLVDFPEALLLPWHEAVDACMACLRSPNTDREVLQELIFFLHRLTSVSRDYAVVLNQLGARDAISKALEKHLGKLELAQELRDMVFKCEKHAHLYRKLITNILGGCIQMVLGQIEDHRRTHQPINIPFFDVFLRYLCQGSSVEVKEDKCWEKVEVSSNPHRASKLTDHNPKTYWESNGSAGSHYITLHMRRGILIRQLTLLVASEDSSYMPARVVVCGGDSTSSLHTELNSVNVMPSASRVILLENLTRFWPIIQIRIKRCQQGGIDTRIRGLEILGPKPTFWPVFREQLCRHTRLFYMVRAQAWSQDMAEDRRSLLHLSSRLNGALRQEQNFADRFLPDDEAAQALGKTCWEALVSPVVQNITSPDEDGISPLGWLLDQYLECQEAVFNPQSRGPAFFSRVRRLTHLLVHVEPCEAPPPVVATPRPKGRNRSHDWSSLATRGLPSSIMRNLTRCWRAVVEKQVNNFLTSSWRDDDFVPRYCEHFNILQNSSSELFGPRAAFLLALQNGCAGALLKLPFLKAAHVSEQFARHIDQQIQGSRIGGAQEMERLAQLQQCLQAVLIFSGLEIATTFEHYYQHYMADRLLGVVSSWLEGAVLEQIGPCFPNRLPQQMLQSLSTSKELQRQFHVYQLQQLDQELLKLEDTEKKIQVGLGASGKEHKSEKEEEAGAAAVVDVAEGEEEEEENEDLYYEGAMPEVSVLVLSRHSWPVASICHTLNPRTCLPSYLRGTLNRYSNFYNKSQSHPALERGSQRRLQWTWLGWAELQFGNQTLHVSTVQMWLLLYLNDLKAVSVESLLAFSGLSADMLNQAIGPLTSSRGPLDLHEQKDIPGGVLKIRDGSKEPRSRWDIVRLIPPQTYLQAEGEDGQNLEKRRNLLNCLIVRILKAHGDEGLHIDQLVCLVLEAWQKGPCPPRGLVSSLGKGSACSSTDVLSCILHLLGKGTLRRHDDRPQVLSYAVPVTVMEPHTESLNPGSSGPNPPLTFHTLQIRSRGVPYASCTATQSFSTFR
UniProt Q14247: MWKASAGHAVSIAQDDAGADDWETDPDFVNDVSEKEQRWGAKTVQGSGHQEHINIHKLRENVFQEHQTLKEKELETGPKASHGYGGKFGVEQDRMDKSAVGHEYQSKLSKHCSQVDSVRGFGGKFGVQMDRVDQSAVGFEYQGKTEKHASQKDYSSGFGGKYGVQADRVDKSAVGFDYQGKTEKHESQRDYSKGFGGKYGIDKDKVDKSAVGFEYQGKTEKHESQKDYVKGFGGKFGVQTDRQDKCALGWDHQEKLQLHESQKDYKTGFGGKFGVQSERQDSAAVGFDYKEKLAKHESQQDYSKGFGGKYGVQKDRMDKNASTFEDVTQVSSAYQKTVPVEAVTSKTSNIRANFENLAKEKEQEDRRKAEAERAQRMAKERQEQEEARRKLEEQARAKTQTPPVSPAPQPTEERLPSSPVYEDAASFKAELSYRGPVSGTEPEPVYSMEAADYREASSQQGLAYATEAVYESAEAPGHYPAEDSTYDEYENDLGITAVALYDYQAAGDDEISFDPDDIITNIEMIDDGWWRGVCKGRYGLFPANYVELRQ
UniProt Q1MSJ5: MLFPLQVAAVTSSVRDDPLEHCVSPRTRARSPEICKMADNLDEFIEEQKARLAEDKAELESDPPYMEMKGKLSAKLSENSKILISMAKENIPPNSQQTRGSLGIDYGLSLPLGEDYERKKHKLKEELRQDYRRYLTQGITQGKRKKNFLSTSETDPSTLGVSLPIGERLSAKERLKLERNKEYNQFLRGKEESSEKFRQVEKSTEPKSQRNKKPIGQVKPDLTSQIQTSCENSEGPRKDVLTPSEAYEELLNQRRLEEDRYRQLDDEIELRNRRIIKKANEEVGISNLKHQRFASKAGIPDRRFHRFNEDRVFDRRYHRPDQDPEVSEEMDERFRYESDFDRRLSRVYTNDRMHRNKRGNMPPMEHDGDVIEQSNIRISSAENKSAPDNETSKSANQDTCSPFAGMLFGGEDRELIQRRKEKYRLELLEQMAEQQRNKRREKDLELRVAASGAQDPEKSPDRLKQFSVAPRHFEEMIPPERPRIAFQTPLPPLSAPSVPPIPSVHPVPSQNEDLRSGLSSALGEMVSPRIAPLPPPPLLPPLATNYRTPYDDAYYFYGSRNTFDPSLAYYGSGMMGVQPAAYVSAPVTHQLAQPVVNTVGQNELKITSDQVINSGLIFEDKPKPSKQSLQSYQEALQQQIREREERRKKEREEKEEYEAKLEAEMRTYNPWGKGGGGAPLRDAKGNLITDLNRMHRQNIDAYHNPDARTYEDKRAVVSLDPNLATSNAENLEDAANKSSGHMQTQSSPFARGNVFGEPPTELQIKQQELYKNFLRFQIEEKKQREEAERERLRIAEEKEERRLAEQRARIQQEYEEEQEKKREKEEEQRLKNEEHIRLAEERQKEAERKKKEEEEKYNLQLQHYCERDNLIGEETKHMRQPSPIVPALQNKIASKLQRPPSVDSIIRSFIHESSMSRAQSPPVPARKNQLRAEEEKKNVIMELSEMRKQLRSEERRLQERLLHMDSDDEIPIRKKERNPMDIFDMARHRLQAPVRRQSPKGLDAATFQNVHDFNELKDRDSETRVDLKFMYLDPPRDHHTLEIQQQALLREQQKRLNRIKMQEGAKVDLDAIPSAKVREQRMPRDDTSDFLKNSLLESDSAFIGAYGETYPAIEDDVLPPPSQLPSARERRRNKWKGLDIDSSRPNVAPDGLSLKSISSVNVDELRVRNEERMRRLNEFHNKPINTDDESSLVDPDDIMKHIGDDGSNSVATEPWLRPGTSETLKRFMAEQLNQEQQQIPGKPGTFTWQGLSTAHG
UniProt Q13620, whole entry, looked up: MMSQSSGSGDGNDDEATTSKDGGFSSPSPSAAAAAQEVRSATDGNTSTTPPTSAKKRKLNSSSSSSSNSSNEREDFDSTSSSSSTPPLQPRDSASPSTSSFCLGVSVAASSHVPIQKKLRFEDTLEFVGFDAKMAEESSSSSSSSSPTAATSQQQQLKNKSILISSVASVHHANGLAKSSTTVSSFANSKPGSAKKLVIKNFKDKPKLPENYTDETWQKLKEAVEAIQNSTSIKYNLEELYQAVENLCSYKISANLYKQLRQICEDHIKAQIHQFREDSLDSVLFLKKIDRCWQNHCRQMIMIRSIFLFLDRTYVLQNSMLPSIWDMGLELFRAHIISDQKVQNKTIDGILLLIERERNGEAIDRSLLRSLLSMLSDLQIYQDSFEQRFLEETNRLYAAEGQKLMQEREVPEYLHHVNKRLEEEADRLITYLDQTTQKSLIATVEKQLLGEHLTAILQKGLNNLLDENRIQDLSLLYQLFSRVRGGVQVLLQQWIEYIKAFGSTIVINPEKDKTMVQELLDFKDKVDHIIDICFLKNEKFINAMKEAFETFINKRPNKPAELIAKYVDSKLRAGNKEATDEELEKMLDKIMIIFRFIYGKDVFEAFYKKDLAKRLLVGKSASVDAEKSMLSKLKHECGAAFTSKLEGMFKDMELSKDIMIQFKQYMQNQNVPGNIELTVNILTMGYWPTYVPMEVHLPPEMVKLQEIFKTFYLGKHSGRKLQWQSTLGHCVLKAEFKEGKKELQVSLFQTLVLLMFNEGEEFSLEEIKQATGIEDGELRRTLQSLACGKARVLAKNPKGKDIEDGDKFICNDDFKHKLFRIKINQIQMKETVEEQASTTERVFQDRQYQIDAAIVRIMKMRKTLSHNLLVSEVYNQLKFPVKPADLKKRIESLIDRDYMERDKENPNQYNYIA

The list shows a part of the results.

Compound in the assay: c1ccc([C@@H]2C[C@H]2NC2CCNCC2)cc1
In words: log2 fold change, soluble protein after heating vs DMSO (PISA); higher = thermal stabilisation; K562 lysate, 10 uM; active = over 0.2 and 3.5 SD of the protein, either way, in both replicates (recomputed). The procedure, abridged:
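Quantification was by TMTpro 16plex LC-MS/MS with equalised channel sums, applied to the supernatant after 21,000xg for 90 min. Samples were crude K562 extract at 1 mg/mL protein in PBS pH 7.4 with 1 mM MgCl2, treated with 10 μM compound for 30 min, heated for 3 min across 48°C-58°C, pooled and brought to 0.5% NP-40 at 4°C. Values are log-two fold changes in thermal stability relative to solvent controls, from duplicates.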
Regarding CYCS (UniProt P99999), the log2 fold change is inactive: -0.01.

Consider CTPS2 (UniProt Q9NRF8), for which the log2 fold change is inactive: 0.

On to CRNKL1 (UniProt Q9BZJ0), for which the log2 fold change was inactive: 0.037.

For CRELD1 isoform 2 (UniProt Q96HD1), the log2 fold change was inactive: -0.037.

With CTDP1 (UniProt Q9Y5B0), the log2 fold change was inactive: 0.045.

Turning to CRK (UniProt P46108), the log2 fold change was inactive: -0.011.

In the case of CREB3L2 (UniProt Q70SY1), the log2 fold change is inactive: -0.098.

Turning to CTU2 (UniProt Q2VPK5), the log2 fold change is inactive: 0.028.

In the case of CREB1 (UniProt P16220), the log2 fold change is inactive: 0.082.

In the case of CT55 (UniProt Q8WUE5), the log2 fold change is inactive: 0.011.

For the target CWC25 (UniProt Q9NXE8), the log2 fold change was inactive: -0.017.

Turning to CUL1 (UniProt Q13616), the log2 fold change is inactive: -0.001.

CRYM (UniProt Q14894): the log2 fold change is inactive: -0.13.

For CSNK1D (UniProt P48730), the log2 fold change was inactive: 0.025.

On to CYB561 (UniProt P49447), for which the log2 fold change was inactive: -0.146.

Take CTU1 (UniProt Q7Z7A3): the log2 fold change was inactive: 0.007.

With CRTC1 (UniProt Q6UUV9), the log2 fold change was inactive: -0.072.

With CUL7 isoform 2 (UniProt Q14999), the log2 fold change is inactive: 0.065.

On to CTC1 (UniProt Q2NKJ3), for which the log2 fold change was inactive: -0.002.

CRYAB (UniProt P02511): the log2 fold change was inactive: -0.035.

For the target CRKL (UniProt P46109), the log2 fold change was inactive: -0.055.

Take CXorf56 (UniProt Q9H5V9): the log2 fold change was inactive: 0.01.

CUL3 (UniProt Q13618): the log2 fold change is inactive: 0.027.

CSE1L (UniProt P55060): the log2 fold change is inactive: 0.028.

Turning to CRLF3 (UniProt Q8IUI8), the log2 fold change was inactive: -0.004.

CUTA isoform 2 (UniProt O60888): the log2 fold change is inactive: -0.091.

For the target CWF19L2 (UniProt Q2TBE0), the log2 fold change is inactive: 0.027.

Consider CSRP1 (UniProt P21291), for which the log2 fold change is inactive: -0.198.

As for CSTF2 (UniProt P33240), the log2 fold change is inactive: 0.01.

Take CTTN (UniProt Q14247): the log2 fold change is inactive: 0.071.

CRTC2 (UniProt Q53ET0): the log2 fold change is inactive: 0.015.

For the target CSPP1 (UniProt Q1MSJ5), the log2 fold change is inactive: -0.028.

For CUL4B (UniProt Q13620), the log2 fold change was inactive: -0.063.

As to CSNK2A1 (UniProt P68400), the log2 fold change was inactive: 0.005.

Turning to CSTF3 (UniProt Q12996), the log2 fold change was inactive: 0.043.

With CTTN isoform 2 (UniProt Q14247), the log2 fold change is inactive: 0.019.

On to CTSL (UniProt P07711), for which the log2 fold change was inactive: -0.026.

For the target CTBP1 (UniProt Q13363), the log2 fold change is inactive: -0.025.

For the target CUTC (UniProt Q9NTM9), the log2 fold change is inactive: -0.042.
